# According to article PMC8546544:
# Sequences of proteins named here, by UniProt entry; tags and fusion partners are left off. Residues count along the entry.
# UniProt O15118, residues 23-1278: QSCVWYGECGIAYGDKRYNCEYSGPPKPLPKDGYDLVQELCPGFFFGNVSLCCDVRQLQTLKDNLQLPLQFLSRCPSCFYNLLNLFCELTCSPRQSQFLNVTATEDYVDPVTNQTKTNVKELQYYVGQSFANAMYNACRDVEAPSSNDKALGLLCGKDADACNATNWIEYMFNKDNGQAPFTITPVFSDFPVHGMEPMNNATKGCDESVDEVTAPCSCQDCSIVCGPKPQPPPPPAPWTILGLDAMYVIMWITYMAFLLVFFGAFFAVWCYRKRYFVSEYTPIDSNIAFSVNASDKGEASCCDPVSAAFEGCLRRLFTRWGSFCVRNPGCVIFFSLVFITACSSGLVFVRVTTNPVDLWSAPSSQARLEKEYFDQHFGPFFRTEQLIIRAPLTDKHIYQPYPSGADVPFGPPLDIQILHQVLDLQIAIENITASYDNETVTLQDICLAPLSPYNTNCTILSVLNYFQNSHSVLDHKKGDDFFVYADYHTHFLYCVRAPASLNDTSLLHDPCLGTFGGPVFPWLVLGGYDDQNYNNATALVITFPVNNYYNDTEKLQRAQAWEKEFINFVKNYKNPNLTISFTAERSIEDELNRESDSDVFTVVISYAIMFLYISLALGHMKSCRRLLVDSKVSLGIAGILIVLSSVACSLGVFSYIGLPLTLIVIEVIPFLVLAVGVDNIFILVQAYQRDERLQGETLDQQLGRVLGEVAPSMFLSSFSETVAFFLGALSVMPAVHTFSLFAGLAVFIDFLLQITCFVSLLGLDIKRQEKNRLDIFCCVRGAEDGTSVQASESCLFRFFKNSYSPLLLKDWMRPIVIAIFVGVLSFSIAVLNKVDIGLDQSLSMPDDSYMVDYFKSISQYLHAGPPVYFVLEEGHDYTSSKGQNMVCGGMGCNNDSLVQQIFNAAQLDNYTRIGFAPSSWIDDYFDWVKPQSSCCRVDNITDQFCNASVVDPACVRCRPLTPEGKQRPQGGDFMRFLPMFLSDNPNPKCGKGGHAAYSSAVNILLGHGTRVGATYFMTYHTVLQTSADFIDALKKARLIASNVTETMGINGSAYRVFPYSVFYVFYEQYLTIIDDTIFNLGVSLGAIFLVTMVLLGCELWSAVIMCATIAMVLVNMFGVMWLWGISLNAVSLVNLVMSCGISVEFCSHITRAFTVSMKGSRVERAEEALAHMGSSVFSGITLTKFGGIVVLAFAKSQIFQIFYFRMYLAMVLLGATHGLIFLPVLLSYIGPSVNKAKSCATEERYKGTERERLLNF
# Changes are numbered by the printed parent chain. No constants are given. Whether binding was seen depends on the method and setting. In cells and extracts the contact can be indirect. Some results given as binding are weak or reduced against the parent protein; the word gives no strength. For some of these results: Sequences can lack the tags named with a protein.
# Assays:
# [1] = molecular target: T1, endogenous flotillin 2 (FLOT2) (human (endogenous in HEK293T)) (UniProt Q14254); test: co-IP; whole-cell lysate of untransfected HEK293T cells (150 mM NaCl, 25 mM Tris-HCl pH 7.6, 1% NP-40) incubated with mouse monoclonal anti-FLOT2 or normal mouse IgG at 4°C overnight, protein G-agarose 2 h; Western blot
# T1 sequence: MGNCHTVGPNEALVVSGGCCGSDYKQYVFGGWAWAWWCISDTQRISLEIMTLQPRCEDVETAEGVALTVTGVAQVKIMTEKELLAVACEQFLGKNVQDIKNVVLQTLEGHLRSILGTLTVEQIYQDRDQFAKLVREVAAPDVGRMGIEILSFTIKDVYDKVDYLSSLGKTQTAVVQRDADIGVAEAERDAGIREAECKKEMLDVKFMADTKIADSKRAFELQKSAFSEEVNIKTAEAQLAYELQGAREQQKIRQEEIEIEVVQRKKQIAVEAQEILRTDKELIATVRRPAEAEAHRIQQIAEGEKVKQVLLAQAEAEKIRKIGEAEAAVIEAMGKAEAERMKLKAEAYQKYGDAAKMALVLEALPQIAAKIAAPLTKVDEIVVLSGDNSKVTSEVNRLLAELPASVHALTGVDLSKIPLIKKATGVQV
# FLOT2-GFP (human) = molecular target: T2, FLOT2-GFP (human) (UniProt Q14254); test: co-IP; lysate of transfected HEK293T cells (150 mM NaCl, 25 mM Tris-HCl pH 7.6, 1% NP-40) incubated with anti-GFP nanobody affinity gel at 4°C for 4 h; Western blot for the endogenous partner; in one panel cells were untreated, treated with 2.5 mM MβCD or with MβCD plus 20 μg/ml water-soluble cholesterol for 40 min before harvest (MβCD reduced, cholesterol restored the co-precipitate)
# T2 sequence: T1 sequence
# FLOT2^1–183-GFP (human) = molecular target: T3, FLOT2^1–183-GFP (human) (UniProt Q14254); test: as above
# T3 sequence: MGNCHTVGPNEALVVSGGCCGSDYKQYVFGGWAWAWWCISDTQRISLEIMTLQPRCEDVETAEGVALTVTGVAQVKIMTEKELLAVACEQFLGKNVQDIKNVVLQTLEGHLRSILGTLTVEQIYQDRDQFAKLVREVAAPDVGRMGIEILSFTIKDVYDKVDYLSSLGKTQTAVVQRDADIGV
# [2] = molecular target: T4, FLOT2^Y124G/Y163G-GFP (human) (UniProt Q14254); test: as above
# T4 sequence: T1 sequence with Y124G, Y163G
substance,measurement,setting,value
endogenous Niemann-Pick type C1 (NPC1) (from UniProt O15118-1 23-1278),binding,[1],binds
same,binding,FLOT2-GFP (human),binds
same,binding,FLOT2^1–183-GFP (human),binds
same,binding,[2],no binding
